PubChem BioAssay AID504774 – Drosophila RNAi Screening Center | 2011

Assay: 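Fly genes whose loss alters survival after alkylation damage to DNA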 (primary screen)
System: Drosophila Kc167 cells
Knock-down reagent: long dsRNA against Drosophila genes, about 0.25 µg dsRNA per well
Time to read-out: about 6 days: 3 days knock-down, then 3 days with or without MMS
Challenge: methyl methanesulphonate 0.004% (w/v) for 3 days after knock-down
Measurement: 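Viability in wells given MMS, read as ATP luminescence, normalised by quantiles plate by plate and averaged across replicates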
Direction: mean viability with MMS and viability with MMS: higher = more surviving cells after MMS
The screen tested about 23,000 reagents; this is a random part of those with a known target gene and a result. 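Values are quantile-normalised luminescence on an arbitrary scale; higher means more cells surviving MMS.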 The numbers tell different reagents against one gene apart. A plus sign joins genes that one reagent is predicted to hit.

gene	dsRNA no.	mean viability with MMS	viability with MMS, replicate 1	viability with MMS, replicate 2
CG2611 (GeneID 35324)	1	3.34e6	4.07e6	3.44e6
Mulk (GeneID 326168)	1	3.51e6	4.04e6	3.93e6
Obp50d (GeneID 246436)	1	3.48e6	4.08e6	3.85e6
Nna1 (GeneID 32329)	1	3.60e6	4.28e6	3.95e6
CG32187 (GeneID 39980)	1	3.60e6	4.10e6	4.06e6
Cln7 (GeneID 38813)	1	3.63e6	4.18e6	4.06e6
Mul1 (GeneID 38472)	1	3.64e6	4.16e6	4.05e6
CG42750 (GeneID 35090)	1	3.22e6	3.46e6	3.46e6
CG42750 (GeneID 35090)	2	3.30e6	3.81e6	3.64e6
CG42750 (GeneID 35090)	3	3.37e6	3.79e6	3.81e6
CG42750 (GeneID 35090)	4	3.59e6	4.12e6	4.02e6
CG42750 (GeneID 35090)	5	3.61e6	4.10e6	4.10e6
Nap1 (GeneID 37798)	1	3.69e6	4.17e6	4.17e6
CG33964 + CG13175	1	3.50e6	3.88e6	4.02e6
CG33964 + CG13175	2	3.43e6	3.98e6	3.88e6
CG33964 + CG13175	3	3.52e6	4.02e6	3.94e6
CG33221 (retired record) (GeneID 2768878)	1	3.65e6	4.11e6	4.12e6
CG15625 (GeneID 33694)	1	3.48e6	4.06e6	3.83e6
CG14655 (GeneID 40594)	1	1.94e6	4.08e6	4.11e6
par-6 (GeneID 32752)	1	3.67e6	4.31e6	4.06e6
AGO3 (GeneID 3355150)	1	3.47e6	4.06e6	3.85e6
CG33489 (GeneID 2768971)	1	3.56e6	4.01e6	4.06e6
Acp29AB (GeneID 34162)	1	3.43e6	3.91e6	3.85e6
CG18558 (GeneID 33482)	1	3.32e6	3.72e6	3.74e6
CG18558 (GeneID 33482)	2	3.69e6	4.15e6	4.17e6
ppk19 (GeneID 43489)	1	3.94e6	4.36e6	4.73e6
Srp9 (GeneID 38883)	1	3.52e6	4.03e6	3.97e6
D19B (GeneID 38717)	1	3.53e6	4.04e6	3.97e6
AcCoAS (GeneID 40348)	1	3.51e6	3.97e6	4.01e6
AcCoAS (GeneID 40348)	2	3.37e6	3.88e6	3.74e6
AcCoAS (GeneID 40348)	3	3.75e6	4.16e6	4.30e6
CG8160 (GeneID 36701)	1	3.71e6	3.97e6	4.04e6
CG8160 (GeneID 36701)	2	3.66e6	4.11e6	4.16e6
CG3704 (GeneID 31043)	1	3.58e6	4.10e6	4.03e6
CG3704 (GeneID 31043)	2	3.62e6	4.13e6	4.08e6
wa-cup (GeneID 40892)	1	3.45e6	3.87e6	3.99e6
Bem46 (GeneID 44441)	1	3.50e6	4.04e6	3.90e6
yin (GeneID 31340)	1	3.63e6	4.04e6	4.18e6
yin (GeneID 31340)	2	3.33e6	3.88e6	3.84e6
Alp10 (GeneID 38632)	1	3.43e6	3.90e6	3.88e6
CG9316 (GeneID 35333)	1	3.52e6	3.99e6	3.98e6
CG13032 (GeneID 39863)	1	3.65e6	4.18e6	4.06e6
gt (GeneID 31227)	1	3.20e6	3.71e6	3.70e6
gt (GeneID 31227)	2	3.56e6	4.05e6	4.05e6
CG17944 (GeneID 40885)	1	3.55e6	3.98e6	4.09e6
CG14759 (GeneID 35803)	1	3.72e6	4.10e6	4.19e6
PolQ (GeneID 41571)	1	3.43e6	3.91e6	3.92e6
CG34024 (retired record) (GeneID 3885580)	1	3.51e6	4.05e6	3.91e6
coro (GeneID 35596)	1	3.80e6	4.20e6	4.20e6
coro (GeneID 35596)	2	3.48e6	4.02e6	3.91e6
wgn (GeneID 32849)	1	3.59e6	4.09e6	4.03e6
Pos (GeneID 43762)	1	3.62e6	4.21e6	4.00e6
CG30430 (GeneID 246610)	1	3.43e6	3.92e6	3.91e6
muskelin (GeneID 36386)	1	3.48e6	3.91e6	3.93e6
Jon99Fii (GeneID 43621)	1	3.58e6	4.07e6	4.04e6
CG15708 (GeneID 36805)	1	3.49e6	3.88e6	4.03e6
SIDL (GeneID 41833)	1	3.68e6	4.23e6	4.13e6
GstE1 (GeneID 37106)	1	3.78e6	4.15e6	4.34e6
CG8243 (GeneID 35890)	1	3.85e6	4.21e6	4.36e6
CG8243 (GeneID 35890)	2	3.43e6	3.87e6	3.98e6
cGlr1 (GeneID 36744)	1	3.51e6	4.06e6	3.89e6
CG2931 (GeneID 40673)	1	3.75e6	4.25e6	4.20e6
LIMK1 (GeneID 32207)	1	3.52e6	4.09e6	3.89e6
hb (GeneID 41032)	1	3.42e6	3.88e6	3.84e6
w-cup (GeneID 34455)	1	3.39e6	4.07e6	3.58e6
Cep290 (GeneID 38099)	1	3.50e6	3.91e6	4.03e6
spz4 (GeneID 34572)	1	3.50e6	3.91e6	4.03e6
CG14879 (GeneID 41982)	1	3.72e6	4.19e6	4.26e6
